Our source for the binding values is publication PMC8648115.

Chains of the proteins cited; added tags and fusions are not shown.
UniProt O76216: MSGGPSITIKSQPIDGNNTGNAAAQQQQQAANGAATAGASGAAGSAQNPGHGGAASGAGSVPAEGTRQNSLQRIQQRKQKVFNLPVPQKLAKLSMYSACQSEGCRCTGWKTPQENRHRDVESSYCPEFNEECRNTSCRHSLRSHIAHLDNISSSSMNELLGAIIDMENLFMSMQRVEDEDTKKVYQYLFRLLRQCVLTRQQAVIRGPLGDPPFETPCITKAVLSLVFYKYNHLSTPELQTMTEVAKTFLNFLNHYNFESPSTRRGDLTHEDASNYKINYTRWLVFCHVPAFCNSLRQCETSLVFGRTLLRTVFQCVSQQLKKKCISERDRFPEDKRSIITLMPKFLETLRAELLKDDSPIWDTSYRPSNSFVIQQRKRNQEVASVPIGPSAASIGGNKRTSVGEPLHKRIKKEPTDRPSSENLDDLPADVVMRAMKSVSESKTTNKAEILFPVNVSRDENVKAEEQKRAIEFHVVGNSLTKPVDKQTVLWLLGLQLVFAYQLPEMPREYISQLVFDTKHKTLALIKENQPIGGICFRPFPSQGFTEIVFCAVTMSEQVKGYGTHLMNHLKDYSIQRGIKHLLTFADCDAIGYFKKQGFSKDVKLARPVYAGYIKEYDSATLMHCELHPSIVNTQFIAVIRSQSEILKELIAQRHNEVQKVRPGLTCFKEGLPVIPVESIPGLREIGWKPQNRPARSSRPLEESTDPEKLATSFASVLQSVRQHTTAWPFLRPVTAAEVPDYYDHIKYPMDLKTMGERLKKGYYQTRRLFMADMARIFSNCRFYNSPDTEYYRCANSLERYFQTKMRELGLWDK

In the assay the target is Gcn5 (Drosophila (endogenous in S2 cells)) (UniProt O76216). As to the kind of experiment: co-IP; rabbit anti-full-length Gcn5 on Protein A Dynabeads precipitates endogenous Gcn5 (SAGA); 1.5 mg nuclear extract of S2 cells transiently transfected with TRF2-S-Flag-HA or TRF2-L-Flag-HA, diluted to 0.15 M NaCl, overnight; washes with 150 mM NaCl, 0.2% Triton X-100; Western blot.

These are yes or no findings as the source states them, for the method shown. In cells and extracts the contact can be indirect. Some entries that bind do so weakly or less than the wild type.

B1: TATA Binding Protein (TBP) (protein, UniProt P20227 1-353)
chain: MDQMLSPNFSIPSIGTPLHQMEADQQIVANPVYHPPAVSQPDSLMPAPGSSSVQHQQQQQQSDASGGSGLFGHEPSLPLAHKQMQSYQPSASYQQQQQQQQLQSQAPGGGGSTPQSMMQPQTPQSMMAHMMPMSERSVGGSGAGGGGDALSNIHQTMGPSTPMTPATPGSADPGIVPQLQNIVSTVNLCCKLDLKKIALHARNAEYNPKRFAAVIMRIREPRTTALIFSSGKMVCTGAKSEDDSRLAARKYARIIQKLGFPAKFLDFKIQNMVGSCDVKFPIRLEGLVLTHCNFSSYEPELFPGLIYRMVRPRIVLLIFVSGKVVLTGAKVRQEIYDAFDKIFPILKKFKKQS
Consider B1, for which the binding entry was “binds”.
